Consider 69 molecules from PubChem BioAssay AID662 (National Center for Advancing Translational Sciences (NCATS), 2007).

The structures appear in SMILES notation. The list shows a part of the results. The main result of the screen is listed elsewhere. These columns were measured beside it and carry no call. The list favours compounds with an active or inconclusive main result. Words in brackets tell the shape of the fitted curve; partial curves, single points and poor fits give uncertain potencies.

A short description of this test: Cell signaling CRE-BLA (Fsk stim). The settings on record: CHO CRE-bla reporter (cAMP response element driving beta-lactamase), forskolin EC10, beta-lactamase ratio; measured here: 460 nm blue channel. A digest of the protocol: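 CRE-bla CHO reporter cells treated with compound titration plus EC10 NKH 477 (water-soluble forskolin), incubated 3 h at 37 °C; CCF4 loading 2 h at room temperature, 460/530 nm emission ratio read, AC50 values derived for positive or negative modulators.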
For the molecule `O=C(O)c1ccc(CN2C(=O)c3ccccc3S2(=O)=O)cc1`, the concentration at half-maximal activity (AC50) is 10 µM [rising, partial curve]. For `Cc1cc(-n2nc(C)cc2C)nc(NS(=O)(=O)c2ccccc2)n1`, the AC50 is 15.8 µM [rising, partial curve]. With `O=C(CNS(=O)(=O)c1ccc(Br)s1)N1CCCC1` the figure was 0.398 µM [falling, partial curve]; with `CCOC(=O)c1cc2nc(Nc3ccc(OC)cc3)sc2s1`, 25.1 µM [rising, single point]. On to `N#CCCn1c2ccccc2c2nc3ccccc3nc21`, for which the AC50 was 2 µM [rising, full curve]. Consider `CCOc1ccccc1Cn1c(=O)oc2ccc(C)cc21`, for which the concentration at half-maximal activity (AC50) is 0.00398 µM [falling, full curve, poor fit]. Then `CC1CN(c2nc3ccccc3nc2C(C#N)C(=O)NC2CCCCC2)CC(C)O1` (centres undefined), with 15.8 µM [rising, partial curve, poor fit]; and `c1ccc2[nH]c(CSc3nnc(-c4ccncc4)o3)nc2c1`, with 1.26 µM [rising, full curve]. Then `Cc1cc(C)n2nc(C(=O)Nc3ccccc3N3CCOCC3)nc2n1`, with 5.01 µM [falling, single point]; and `Oc1ccc(-c2nc(-c3ccc(O)c(O)c3)cs2)cc1`, with 3.98 µM [falling, partial curve]. Then `CCOc1ccccc1C1C(C(=O)OC)=CN(C)C=C1C(=O)OC`, with 10 µM [rising, partial curve]; and `C=CCN1C(=O)C2C(C(=O)NC)C3(C)C=CC2(O3)C1C(=O)NCc1ccc(OC)cc1` (centres undefined), with 25.1 µM [falling, single point]. On to `O=S(=O)(NC1=NCCCCCC1)c1cccs1`, for which the AC50 is 5.01 µM [falling, single point].

As for `COc1ccc(NC(=O)CSc2nnc(Cc3cccn3C)n2-c2ccc(OC)cc2)cc1`, the AC50 was 7.94 µM [falling, partial curve].

On to `CCCOC(=O)Nc1sc2c(c1C(=O)OCC)CCC2`, for which the AC50 was 10 µM [rising, single point]. With `COc1cc(-c2noc(-c3cccs3)n2)cc(OC)c1OC` the figure was 10 µM [rising, single point]; with `CCOC(=O)C1CCN(C(=O)CN(Cc2ccc(Cl)cc2)S(C)(=O)=O)CC1`, 10 µM [rising, partial curve]. Then `Cc1cccn2c(=O)c3cc(C(=O)NCc4ccco4)c(=N)n(C(C)C)c3nc12`, with 12.6 µM [rising, partial curve]; and `CCCC(=O)Nc1ccc2oc(-c3cccnc3)nc2c1`, with 15.8 µM [rising, single point]. On to `COc1ccc2nc(N3CCC(O)CC3)c(C#N)cc2c1`, for which the AC50 was 12.6 µM [rising, single point]. Then `COc1ccc2c(c1)c(=O)cc(C)n2CC(=O)NCc1ccco1`, with 25.1 µM [rising, single point]; and `Cc1occc1-c1nnc(SCc2nnc(-c3ccc(Cl)cc3)o2)n1C`, with 5.01 µM [falling, single point]; and `Cc1cc(Cl)cc(Cl)c1OCC(=O)NCc1ccco1`, with 0.126 µM [falling, full curve]. Then `Cc1nc2ccc(F)cc2cc1C(=O)NC(C)C`, with 3.16 µM [falling, single point]; and `CN(C)S(=O)(=O)N1CCC(Cc2ccccc2)CC1`, with 0.631 µM [rising, partial curve].

Turning to `Cc1c(C(=O)NCc2ccccn2)sc2nc(-c3ccc(F)cc3)cn12`, the half-maximal activity concentration (AC50) is 15.8 µM [rising, partial curve]. Then `N#CC(C(=O)OCc1ccccc1)c1nc2ccccc2nc1N1CCOCC1` (centres undefined), with 12.6 µM [rising, partial curve]; and `O=C(Nc1ccc2c(c1)OCO2)C1CC(c2c(F)cccc2Cl)=NO1` (centres undefined), with 20 µM [falling, partial curve]; and `Cc1ccc(S(=O)(=O)NC2=NCN(C3CCCCC3)CN2)cc1`, with 1 µM [falling, full curve]. Take `CC(C)(C)OC(=O)N1CCN(c2ccc(NC(=O)Cn3nnc(-c4ccccc4)n3)cc2)CC1`: the AC50 is 10 µM [falling, single point]. With `O=C(O)CCC(=O)CCC(=O)c1ccc(Cl)cc1` the figure was 0.398 µM [rising, partial curve]; with `CCOc1ccc(-c2nnn(CC(=O)Nc3cc(OC)ccc3OC)n2)cc1OCC`, 3.16 µM [rising, single point]. With `CCOc1ccc(CCNC(=O)CN(C)S(=O)(=O)c2cccc3nsnc23)cc1OCC` the figure was 0.2 µM [rising, partial curve]; with `c1cncc(-c2nc(NCc3ccco3)c3ccccc3n2)c1`, 25.1 µM [falling, single point].

For `NCCCC(=O)O`, the AC50 is 0.00794 µM [rising, full curve, poor fit]. Consider `O=C(CN1C(=O)CCC1=O)Nc1ccc(Br)cc1`, for which the half-maximal activity concentration (AC50) is 5.01 µM [falling, single point].

With `O=C(O)CC[P+](c1ccccc1)(c1ccccc1)c1ccccc1`, the AC50 was 0.631 µM [rising, single point]. With `c1ccc(Cc2nn3c(C4COc5ccccc5O4)nnc3s2)cc1` (centres undefined) the figure was 3.16 µM [falling, single point]. Then `COc1ccc(-c2nnc(COc3ccc4ccccc4c3)o2)cc1OC`, with 0.631 µM [rising, full curve].

Take `Cc1nnc2ccc(N3CCN(c4ccccn4)CC3)nn12`: the AC50 was 7.94 µM [rising, partial curve].

As for `CN(C)c1ncc2nc(-c3ccc(F)cc3)c(=O)n(Cc3ccc(F)cc3)c2n1`, the concentration at half-maximal activity (AC50) was 12.6 µM [rising, partial curve]. Then `c1ccc(-c2nnc3sc(-c4cc5ccccc5o4)nn23)cc1`, with 12.6 µM [rising, partial curve]. Then `CCn1nc(C(=O)OCC(=O)c2ccc3c(c2)OCCO3)c2ccccc2c1=O`, with 3.16 µM [falling, partial curve]; and `Cc1[nH]n(-c2ccccc2)c(=O)c1-c1ccccc1`, with 12.6 µM [rising, single point].

As for `CCOC(=O)C1CCN(C2CC(=O)N(c3ccc(OCC)cc3)C2=O)CC1` (centres undefined), the concentration at half-maximal activity (AC50) is 0.00501 µM [falling, full curve, poor fit]. Then `CCc1nc2ccccc2n1CC(=O)N1CCN(S(=O)(=O)c2cccc(C(F)(F)F)c2)CC1`, with 5.01 µM [rising, single point]; and `Cc1cc2c(=O)n(CC(=O)NCC(=O)N3CCN(Cc4ccccc4)CC3)cnc2s1`, with 0.501 µM [falling, full curve]; and `O=C(NCc1cccs1)c1cnc2sccn2c1=O`, with 10 µM [rising, single point]. Turning to `CC(=O)NC(CCS(C)(=O)=O)C(=O)Nc1c(F)cccc1F` (centres undefined), the AC50 was 1.26 µM [falling, partial curve]. Regarding `Cc1ccc(S(=O)(=O)N2CCCCC2C(=O)NCc2ccco2)cc1` (centres undefined), the AC50 was 3.98 µM [falling, partial curve, poor fit]. Then `COC(=O)CSc1nnnn1-c1ccccc1`, with 5.01 µM [falling, single point]; and `C(=C\c1ccccc1)/CN1CCN(c2ncnc3c2oc2ccccc23)CC1`, with 10 µM [falling, partial curve]; and `CC(C)(C)n1ncc2c(=O)n(CC(=O)N3CCCc4ccccc43)cnc21`, with 25.1 µM [rising, partial curve]. With `COc1ccc(-c2nnn(CC(=O)N(Cc3cccs3)C(C)C(=O)NC3CCCC3)n2)cc1OC` (centres undefined), the AC50 is 10 µM [rising, single point]. In the case of `NS(=O)(=O)c1ccc(CCNC(=O)NC2(C(F)(F)F)Oc3ccccc3O2)cc1`, the half-maximal activity concentration (AC50) was 10 µM [falling, single point].

Turning to `COc1ccc(N2CCN(CCNC(=O)c3c(C)cc(=O)oc3C)CC2)cc1`, the AC50 is 0.158 µM [rising, partial curve, poor fit].

As to `O=C(NCc1ccco1)c1cc2ccccc2c(=O)o1`, the AC50 is 12.6 µM [falling, partial curve]. In the case of `CCOC(=O)c1nnn(CC(=O)Nc2ccccc2OC)c1C(=O)OCC`, the AC50 was 20 µM [falling, partial curve, poor fit]. Then `O=C(NCC1CCCO1)C1CCN(S(=O)(=O)c2cccnc2)CC1` (centres undefined), with 0.0501 µM [falling, full curve, poor fit]. Then `CCN(CC)S(=O)(=O)c1ccc2c(c1)nc(SCc1nc3ccsc3c(=O)[nH]1)n2CC`, with 5.01 µM [rising, partial curve]; and `COC(=O)c1[nH]c2cc(C)ccc2c1NC(=O)CN1CCN(C(=O)c2ccco2)CC1`, with 2.51 µM [falling, full curve]; and `CN(c1ccc(C(=O)NCCC2=CCCCC2)cc1)S(C)(=O)=O`, with 0.631 µM [rising, single point]. With `c1ccc(Cn2c(SCc3cn4cccnc4n3)nnc2-c2ccco2)cc1` the figure was 10 µM [rising, partial curve]. On to `COC(=O)CNC(=O)c1cn(CC(C)C)c(=O)c2cc(OC)c(OC)cc12`, for which the AC50 is 10 µM [rising, single point]. Then `COCCn1c(=O)c(C)nc2cnc(Nc3ccccc3)nc21`, with 10 µM [rising, partial curve]. With `O=C(CSc1nnc(-c2ccc(O)cc2)n1Cc1ccco1)N1CCc2ccccc2C1` the figure was 31.6 µM [falling, single point]; with `Cc1nnc(NC2=NCCC2)o1`, 12.6 µM [rising, single point]. Then `CCOC(=O)CON1C(=O)C(C)(C)N(OCC(=O)OCC)C(=O)C1(C)C`, with 0.398 µM [rising, partial curve]; and `COC1=Cc2c(ccc3ccc(=O)oc23)OC1(C)C`, with 10 µM [rising, single point].

Usually AC50 stands for the concentration giving half of the maximal activity seen.
